{"source": "PubChem BioAssay AID686943 (Drosophila RNAi Screening Center, 2013)", "purpose": "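Knockdowns that increase or decrease active ERK after insulin receptor stimulation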 (primary screen)", "system": "Drosophila S2R+ haemocyte-like cells expressing YFP-tagged ERK (Rolled)", "reagent": "long dsRNA against Drosophila genes", "treatment": "insulin stimulation versus unstimulated cells; dose and duration not given", "read-out": "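Per-plate z-scores of phospho-ERK immunostaining normalised to YFP-tagged ERK, measured with and without insulin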", "direction": "replicate 1, z-score of dpERK with insulin and replicate 2, z-score of dpERK with insulin: higher = more active ERK per ERK-YFP after insulin", "note": "The deposit covers about 23,000 reagents; shown is an unselected part of those with a known target gene and a result. 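Extra replicates exist only for a retested subset of genes; insulin dose and duration not given; both raised and lowered dpERK matter.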 Not all columns of the deposit are shown. Not given: the amount of reagent, the time to read-out."}
{"target": "CG7139 (GeneID 40448)", "dsRNA": "DRSC11611", "replicate 1, z-score of dpERK with insulin": -0.54, "replicate 2, z-score of dpERK with insulin": -0.01}
{"target": "CG33093 (GeneID 42654)", "dsRNA": "DRSC15775", "replicate 1, z-score of dpERK with insulin": 0.27, "replicate 2, z-score of dpERK with insulin": 0.68}
{"target": "CG13685 (GeneID 38869)", "dsRNA": "DRSC10043", "replicate 1, z-score of dpERK with insulin": 0.18, "replicate 2, z-score of dpERK with insulin": 0.36}
{"target": "CG13474 (GeneID 39600)", "dsRNA": "DRSC10018", "replicate 1, z-score of dpERK with insulin": -2.56, "replicate 2, z-score of dpERK with insulin": -1.1}
{"target": "Sgs5bis (GeneID 42113)", "dsRNA": "DRSC16263", "replicate 1, z-score of dpERK with insulin": -0.14, "replicate 2, z-score of dpERK with insulin": 0.9}
{"target": "Mettl2 (GeneID 38197)", "dsRNA": "DRSC08398", "replicate 1, z-score of dpERK with insulin": -0.42, "replicate 2, z-score of dpERK with insulin": -0.18}
{"target": "Hr4 (GeneID 31162)", "dsRNA": "DRSC18495", "replicate 1, z-score of dpERK with insulin": -3.81, "replicate 2, z-score of dpERK with insulin": 1.3}
{"target": "Hr4 (GeneID 31162)", "dsRNA": "DRSC18599", "replicate 1, z-score of dpERK with insulin": -2.5, "replicate 2, z-score of dpERK with insulin": 0}
{"target": "Hr4 (GeneID 31162)", "dsRNA": "DRSC22269", "replicate 1, z-score of dpERK with insulin": -1.69, "replicate 2, z-score of dpERK with insulin": -1.57}
{"target": "Hr4 (GeneID 31162)", "dsRNA": "DRSC22677", "replicate 1, z-score of dpERK with insulin": -2.63, "replicate 2, z-score of dpERK with insulin": -3.38}
{"target": "CG8245 (GeneID 35503)", "dsRNA": "DRSC04901", "replicate 1, z-score of dpERK with insulin": 0.52, "replicate 2, z-score of dpERK with insulin": 0.77}
{"target": "dsb (GeneID 38252)", "dsRNA": "DRSC08407", "replicate 1, z-score of dpERK with insulin": -2.07, "replicate 2, z-score of dpERK with insulin": -1.05}
{"target": "dsb (GeneID 38252)", "dsRNA": "DRSC08542", "replicate 1, z-score of dpERK with insulin": 0.3, "replicate 2, z-score of dpERK with insulin": -0.01}
{"target": "E(Pc) (GeneID 36238)", "dsRNA": "DRSC05281", "replicate 1, z-score of dpERK with insulin": -3.7, "replicate 2, z-score of dpERK with insulin": -4.49}
{"target": "E(Pc) (GeneID 36238)", "dsRNA": "DRSC07408", "replicate 1, z-score of dpERK with insulin": -3.48, "replicate 2, z-score of dpERK with insulin": -4.48}
{"target": "CG11317 (GeneID 43676)", "dsRNA": "DRSC14299", "replicate 1, z-score of dpERK with insulin": -0.38, "replicate 2, z-score of dpERK with insulin": 2.44}
{"target": "Prp16 (GeneID 32373)", "dsRNA": "DRSC19538", "replicate 1, z-score of dpERK with insulin": 0.29, "replicate 2, z-score of dpERK with insulin": 0.26}
{"target": "Prp16 (GeneID 32373)", "dsRNA": "DRSC19542", "replicate 1, z-score of dpERK with insulin": 0.46, "replicate 2, z-score of dpERK with insulin": 0.39}
{"target": "Yp2 (GeneID 31938)", "dsRNA": "DRSC18732", "replicate 1, z-score of dpERK with insulin": -0.5, "replicate 2, z-score of dpERK with insulin": 0.66}
{"target": "reb (GeneID 36275)", "dsRNA": "DRSC06308", "replicate 1, z-score of dpERK with insulin": 0.28, "replicate 2, z-score of dpERK with insulin": 0.54}
{"target": "CG15909 (GeneID 35572)", "dsRNA": "DRSC04977", "replicate 1, z-score of dpERK with insulin": -0.22, "replicate 2, z-score of dpERK with insulin": 1.41}
{"target": "CG12481 (GeneID 32364)", "dsRNA": "DRSC19461", "replicate 1, z-score of dpERK with insulin": -0.34, "replicate 2, z-score of dpERK with insulin": -0.22}
{"target": "al (GeneID 33208)", "dsRNA": "DRSC00799", "replicate 1, z-score of dpERK with insulin": 0.72, "replicate 2, z-score of dpERK with insulin": 1.15}

Reprinted from above (2 entries):
{"target": "Prp16 (GeneID 32373)", "dsRNA": "DRSC19542", "replicate 1, z-score of dpERK with insulin": 0.46, "replicate 2, z-score of dpERK with insulin": 0.39}
{"target": "Yp2 (GeneID 31938)", "dsRNA": "DRSC18732", "replicate 1, z-score of dpERK with insulin": -0.5, "replicate 2, z-score of dpERK with insulin": 0.66}

Additional reagents follow.
{"target": "Ttc1 (GeneID 41993)", "dsRNA": "DRSC15016", "replicate 1, z-score of dpERK with insulin": 0.88, "replicate 2, z-score of dpERK with insulin": -1.56}
{"target": "Ttc1 (GeneID 41993)", "dsRNA": "DRSC22469", "replicate 1, z-score of dpERK with insulin": 0.1, "replicate 2, z-score of dpERK with insulin": -0.68}
{"target": "CG7140 (GeneID 40445)", "dsRNA": "DRSC11799", "replicate 1, z-score of dpERK with insulin": -0.21, "replicate 2, z-score of dpERK with insulin": 1.04}
{"target": "IntS2 (GeneID 32745)", "dsRNA": "DRSC20094", "replicate 1, z-score of dpERK with insulin": -2.75, "replicate 2, z-score of dpERK with insulin": -1.05}
{"target": "oys (GeneID 36045)", "dsRNA": "DRSC05203", "replicate 1, z-score of dpERK with insulin": -1.87, "replicate 2, z-score of dpERK with insulin": -1.77}
{"target": "oys (GeneID 36045)", "dsRNA": "DRSC06751", "replicate 1, z-score of dpERK with insulin": 0.35, "replicate 2, z-score of dpERK with insulin": 0.01}
{"target": "CG8360 (GeneID 34122)", "dsRNA": "DRSC03085", "replicate 1, z-score of dpERK with insulin": -0.29, "replicate 2, z-score of dpERK with insulin": 0.05}
{"target": "CG7406 (GeneID 32892)", "dsRNA": "DRSC20042", "replicate 1, z-score of dpERK with insulin": 0.66, "replicate 2, z-score of dpERK with insulin": 0.13}
{"target": "Dbp21E2 (GeneID 33254)", "dsRNA": "DRSC00616", "replicate 1, z-score of dpERK with insulin": 0, "replicate 2, z-score of dpERK with insulin": -0.54}
{"target": "mv (GeneID 38259)", "dsRNA": "DRSC08208", "replicate 1, z-score of dpERK with insulin": -0.21, "replicate 2, z-score of dpERK with insulin": -0.56}
{"target": "mv (GeneID 38259)", "dsRNA": "DRSC08570", "replicate 1, z-score of dpERK with insulin": -0.55, "replicate 2, z-score of dpERK with insulin": 0.07}
{"target": "CG10177 (GeneID 42772)", "dsRNA": "DRSC14201", "replicate 1, z-score of dpERK with insulin": -0.09, "replicate 2, z-score of dpERK with insulin": 0.07}
{"target": "CG12848 (GeneID 50139)", "dsRNA": "DRSC04128", "replicate 1, z-score of dpERK with insulin": -0.1, "replicate 2, z-score of dpERK with insulin": -0.49}
{"target": "GLaz (GeneID 36447)", "dsRNA": "DRSC07431", "replicate 1, z-score of dpERK with insulin": -1.03, "replicate 2, z-score of dpERK with insulin": -0.49}
{"target": "CG12426 (GeneID 43342)", "dsRNA": "DRSC14516", "replicate 1, z-score of dpERK with insulin": 0.55, "replicate 2, z-score of dpERK with insulin": 0.08}
{"target": "Reg-5 (GeneID 37968)", "dsRNA": "DRSC04647", "replicate 1, z-score of dpERK with insulin": 0.8, "replicate 2, z-score of dpERK with insulin": -0.04}
{"target": "RhoGEF4 (GeneID 38806)", "dsRNA": "DRSC11011", "replicate 1, z-score of dpERK with insulin": -0.27, "replicate 2, z-score of dpERK with insulin": -0.24}
